Compound in this experiment: Nc1nc2c(ncn2[C@@H]2O[C@H](COP(=O)(O)OP(=O)(O)OP(=O)(O)O)[C@@H](O)[C@H]2O)c(=O)[nH]1 [guanosine triphosphate]
Briefly: NP40-soluble protein abundance relative to vehicle (solubility fold change) (ratio); higher = more soluble protein in presence of GTP. As to the method:
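Solubility proteome profiling in Jurkat crude lysate. Lysate was treated with Mg-GTP (0.1-10 mM) for 10 min at room temperature and 3 min at 37 °C, then solubilised with 0.8% NP40 and benzonase, followed by ultracentrifugation. Proteins were quantified by TMT10 LC-MS/MS; the value is the NP40-soluble abundance relative to the NP40-processed vehicle, from 3 independent experiments.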

By UniProt entry, the sequences of proteins in these tests, tags left out. Where a name states a change or a piece, a line headed by the entry shows the natural chain unless it says otherwise.
UniProt P30307: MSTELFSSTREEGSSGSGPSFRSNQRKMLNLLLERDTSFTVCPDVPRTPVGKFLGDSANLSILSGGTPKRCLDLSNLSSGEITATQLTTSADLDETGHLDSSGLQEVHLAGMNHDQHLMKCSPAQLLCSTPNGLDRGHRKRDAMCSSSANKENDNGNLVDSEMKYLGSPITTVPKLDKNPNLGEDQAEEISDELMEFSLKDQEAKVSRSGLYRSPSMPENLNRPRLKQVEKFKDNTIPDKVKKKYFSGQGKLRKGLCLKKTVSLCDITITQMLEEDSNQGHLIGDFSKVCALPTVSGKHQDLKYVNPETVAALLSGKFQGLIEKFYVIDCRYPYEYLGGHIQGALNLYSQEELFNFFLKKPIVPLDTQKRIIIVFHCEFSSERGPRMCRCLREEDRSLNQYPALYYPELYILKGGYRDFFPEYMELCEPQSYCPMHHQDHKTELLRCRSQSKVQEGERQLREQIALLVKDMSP
UniProt P41091, whole entry: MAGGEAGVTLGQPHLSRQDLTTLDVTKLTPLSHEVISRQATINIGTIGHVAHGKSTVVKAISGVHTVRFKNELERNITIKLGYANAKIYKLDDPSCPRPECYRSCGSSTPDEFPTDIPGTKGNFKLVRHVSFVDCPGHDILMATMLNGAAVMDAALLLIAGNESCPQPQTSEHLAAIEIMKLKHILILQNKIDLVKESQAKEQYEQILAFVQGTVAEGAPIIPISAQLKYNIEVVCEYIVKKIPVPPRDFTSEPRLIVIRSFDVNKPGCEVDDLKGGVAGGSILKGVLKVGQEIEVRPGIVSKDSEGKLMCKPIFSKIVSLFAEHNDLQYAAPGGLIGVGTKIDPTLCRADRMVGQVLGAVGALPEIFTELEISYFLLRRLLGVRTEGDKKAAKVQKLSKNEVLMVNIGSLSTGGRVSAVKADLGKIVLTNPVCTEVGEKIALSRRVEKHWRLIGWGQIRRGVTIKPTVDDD
UniProt P28062: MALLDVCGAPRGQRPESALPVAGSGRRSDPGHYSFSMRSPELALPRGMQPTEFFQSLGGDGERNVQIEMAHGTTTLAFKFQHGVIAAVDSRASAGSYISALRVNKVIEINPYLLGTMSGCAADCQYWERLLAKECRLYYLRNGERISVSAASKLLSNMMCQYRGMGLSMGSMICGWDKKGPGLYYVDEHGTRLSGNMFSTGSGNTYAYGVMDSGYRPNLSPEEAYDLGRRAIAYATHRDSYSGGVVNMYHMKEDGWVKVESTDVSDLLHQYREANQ
UniProt P46977: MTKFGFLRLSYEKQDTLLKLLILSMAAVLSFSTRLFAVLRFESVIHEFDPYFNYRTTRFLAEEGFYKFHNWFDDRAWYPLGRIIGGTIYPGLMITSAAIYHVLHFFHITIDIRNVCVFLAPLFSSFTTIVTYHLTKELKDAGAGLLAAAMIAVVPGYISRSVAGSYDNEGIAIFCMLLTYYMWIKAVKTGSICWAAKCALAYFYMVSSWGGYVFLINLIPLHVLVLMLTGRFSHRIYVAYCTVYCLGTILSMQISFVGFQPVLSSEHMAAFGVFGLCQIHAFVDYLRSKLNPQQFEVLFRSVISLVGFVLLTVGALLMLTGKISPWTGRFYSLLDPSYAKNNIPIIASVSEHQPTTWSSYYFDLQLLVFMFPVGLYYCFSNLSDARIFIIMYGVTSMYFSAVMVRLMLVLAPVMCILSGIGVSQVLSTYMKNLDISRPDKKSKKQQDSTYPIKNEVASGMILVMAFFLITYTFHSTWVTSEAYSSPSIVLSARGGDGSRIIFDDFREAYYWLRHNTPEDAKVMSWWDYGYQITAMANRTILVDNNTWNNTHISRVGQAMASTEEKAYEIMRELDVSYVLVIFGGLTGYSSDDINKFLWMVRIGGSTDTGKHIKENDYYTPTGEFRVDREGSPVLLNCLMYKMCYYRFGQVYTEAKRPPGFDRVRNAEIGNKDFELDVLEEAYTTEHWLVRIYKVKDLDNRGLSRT

± gives the standard deviation of the averaged measurements. The list shows a part of the results.

For the target UniProt P30307 and related entries, the NP40-soluble protein abundance reads like this: (concentration: 0.1mM) 1.12 ± 0.12; (concentration: 0.5mM) 1.12 ± 0.015; (concentration: 1mM) 1.07 ± 0.051; (concentration: 2mM) 1.16 ± 0.05; (concentration: 4mM) 1.09 ± 0.021; (concentration: 6mM) 1.07 ± 0.085. Moreover, the NP40-soluble protein abundance came to 1.03 ± 0.044 (concentration: 8mM) and 1.02 ± 0.14 (concentration: 10mM).

Consider EIF2S3 (UniProt P41091), for which the NP40-soluble protein abundance is 1.02 ± 0.024 (concentration: 0.1mM); 1.05 ± 0.045 (concentration: 0.5mM); 0.967 ± 0.015 (concentration: 1mM); 0.98 ± 0.071 (concentration: 2mM); 0.981 ± 0.04 (concentration: 4mM); 0.995 ± 0.038 (concentration: 6mM). In addition, the NP40-soluble protein abundance worked out at 0.956 ± 0.025 (concentration: 8mM) and 0.931 ± 0.065 (concentration: 10mM).

With “P28062 and related entries (UniProt X5D2R7+P28062)”, the NP40-soluble protein abundance (concentration: 0.1mM) turned out to be 0.939 ± 0.033; the NP40-soluble protein abundance (concentration: 0.5mM) stood at 0.98 ± 0.076; the NP40-soluble protein abundance (concentration: 1mM) stood at 0.944 ± 0.13; the NP40-soluble protein abundance (concentration: 2mM) was 1.01 ± 0.16; the NP40-soluble protein abundance (concentration: 4mM) turned out to be 1.01 ± 0.18; the NP40-soluble protein abundance (concentration: 6mM) turned out to be 1.02 ± 0.21. The NP40-soluble protein abundance came out at 0.983 ± 0.12 (concentration: 8mM) and 0.97 ± 0.14 (concentration: 10mM).

In the case of ERP29 (UniProt P30040), the NP40-soluble protein abundance by setting is: (concentration: 0.1mM) 0.883 ± 0.013; (concentration: 0.5mM) 0.867 ± 0.028; (concentration: 1mM) 0.93 ± 0.025; (concentration: 2mM) 0.899 ± 0.027; (concentration: 4mM) 0.869 ± 0.035; (concentration: 6mM) 0.882 ± 0.037. The NP40-soluble protein abundance was determined as 0.84 ± 0.084 (concentration: 8mM) and 0.856 ± 0.041 (concentration: 10mM).

As to STT3A (UniProt P46977), the NP40-soluble protein abundance reads like this: (concentration: 0.1mM) 0.995 ± 0.037; (concentration: 0.5mM) 1.03 ± 0.055; (concentration: 1mM) 0.912 ± 0.051; (concentration: 2mM) 0.902 ± 0.1; (concentration: 4mM) 0.912 ± 0.045; (concentration: 6mM) 0.905 ± 0.057. Further, the NP40-soluble protein abundance is 0.88 ± 0.0097 (concentration: 8mM) and 0.858 ± 0.03 (concentration: 10mM).
